Laboratory results taken from article PMC6834558.
These are yes or no findings as the source states them, for the method shown. In cells and extracts the contact can be indirect. Some results given as binding are weak or reduced against the parent protein; the word gives no strength. For part of these data: Sequences can lack the tags named with a protein.

Chains of the proteins cited; added tags and fusions are not shown. Residues count along the entry.
UniProt P08581, residues 25-1390: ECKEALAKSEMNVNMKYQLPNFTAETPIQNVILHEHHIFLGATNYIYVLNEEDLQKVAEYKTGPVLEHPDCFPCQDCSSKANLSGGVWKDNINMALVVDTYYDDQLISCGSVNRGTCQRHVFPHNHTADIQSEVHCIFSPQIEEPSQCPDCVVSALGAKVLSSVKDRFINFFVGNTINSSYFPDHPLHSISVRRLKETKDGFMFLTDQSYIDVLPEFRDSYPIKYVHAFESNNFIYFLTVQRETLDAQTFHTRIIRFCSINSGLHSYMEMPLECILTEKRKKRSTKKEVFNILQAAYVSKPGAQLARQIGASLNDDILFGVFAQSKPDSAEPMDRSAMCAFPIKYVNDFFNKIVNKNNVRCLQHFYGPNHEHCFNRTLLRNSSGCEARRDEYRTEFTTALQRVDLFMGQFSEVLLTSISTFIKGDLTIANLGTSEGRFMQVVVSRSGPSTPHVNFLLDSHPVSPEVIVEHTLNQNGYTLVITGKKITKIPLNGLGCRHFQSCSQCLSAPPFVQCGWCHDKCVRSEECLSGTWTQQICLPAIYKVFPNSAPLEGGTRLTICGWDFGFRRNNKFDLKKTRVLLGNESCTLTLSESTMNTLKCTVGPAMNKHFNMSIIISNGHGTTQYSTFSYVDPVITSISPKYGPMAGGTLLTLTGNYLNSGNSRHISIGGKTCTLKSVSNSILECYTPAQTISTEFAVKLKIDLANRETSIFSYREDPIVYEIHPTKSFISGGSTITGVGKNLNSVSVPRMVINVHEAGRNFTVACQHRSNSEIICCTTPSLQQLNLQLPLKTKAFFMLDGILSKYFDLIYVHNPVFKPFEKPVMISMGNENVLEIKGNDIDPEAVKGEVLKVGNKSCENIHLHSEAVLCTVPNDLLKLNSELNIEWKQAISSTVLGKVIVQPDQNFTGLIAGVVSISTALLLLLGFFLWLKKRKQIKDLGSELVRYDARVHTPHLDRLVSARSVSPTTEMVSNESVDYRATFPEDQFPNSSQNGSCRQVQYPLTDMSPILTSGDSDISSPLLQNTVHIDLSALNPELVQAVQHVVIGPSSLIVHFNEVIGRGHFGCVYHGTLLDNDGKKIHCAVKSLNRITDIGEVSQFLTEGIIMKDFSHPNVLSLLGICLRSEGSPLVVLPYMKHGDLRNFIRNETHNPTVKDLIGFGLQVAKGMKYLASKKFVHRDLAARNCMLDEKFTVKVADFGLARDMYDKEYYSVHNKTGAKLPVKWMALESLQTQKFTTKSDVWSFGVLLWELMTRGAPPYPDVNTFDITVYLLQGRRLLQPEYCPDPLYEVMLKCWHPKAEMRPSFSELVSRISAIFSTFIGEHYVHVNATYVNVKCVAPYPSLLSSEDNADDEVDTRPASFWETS

How the values were obtained:
[1] = target: T1, EGFL9-V5 (overexpressed in HMLE/EGFL9 cells) (UniProt Q6UY11); assay: co-IP; HMLE/EGFL9 cell lysate (10 mM CHAPS, 50 mM Tris-HCl pH 8, 150 mM NaCl, 0.5% NP-40, 2 mM EDTA); reciprocal: IP with anti-V5 and blot with anti-cMET, IP with anti-cMET and blot with anti-V5; 500 ug protein, 2 ug antibody, 12 h at 4 °C; IgG as IP control
T1 sequence: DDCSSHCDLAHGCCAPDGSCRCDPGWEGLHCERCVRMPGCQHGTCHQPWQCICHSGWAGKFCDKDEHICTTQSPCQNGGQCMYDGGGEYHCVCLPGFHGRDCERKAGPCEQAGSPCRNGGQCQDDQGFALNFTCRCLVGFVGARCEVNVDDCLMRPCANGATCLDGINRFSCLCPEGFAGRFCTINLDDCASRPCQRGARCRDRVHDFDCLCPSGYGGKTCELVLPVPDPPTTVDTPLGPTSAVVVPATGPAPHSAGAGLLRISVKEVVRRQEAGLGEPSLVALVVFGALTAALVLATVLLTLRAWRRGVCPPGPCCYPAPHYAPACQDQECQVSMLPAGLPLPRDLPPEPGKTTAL

[2] = target: T2, EGFL9-V5 (co-transfected with cMET constructs) (UniProt Q6UY11); assay: co-IP; V5-IP of EGFL9 with co-transfected wild-type cMET or cMETdel; cells not stated (Supplementary Fig. 7c)
T2 sequence: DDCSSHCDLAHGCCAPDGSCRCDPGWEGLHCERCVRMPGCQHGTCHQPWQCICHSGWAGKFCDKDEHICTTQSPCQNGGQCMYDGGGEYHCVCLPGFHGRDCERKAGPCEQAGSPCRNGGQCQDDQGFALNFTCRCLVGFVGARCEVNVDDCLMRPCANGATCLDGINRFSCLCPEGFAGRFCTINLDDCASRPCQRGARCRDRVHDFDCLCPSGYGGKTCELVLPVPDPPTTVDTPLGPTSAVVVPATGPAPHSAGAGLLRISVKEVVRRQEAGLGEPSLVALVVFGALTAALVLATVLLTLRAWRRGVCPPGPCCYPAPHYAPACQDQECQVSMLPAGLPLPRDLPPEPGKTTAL

[3] = target: cMET (endogenous) (human (endogenous in HMLE and SUM159)) (UniProt P08581); assay: co-IP; HMLE/EGFL9 cell lysate (10 mM CHAPS, 50 mM Tris-HCl pH 8, 150 mM NaCl, 0.5% NP-40, 2 mM EDTA); reciprocal: IP with anti-V5 and blot with anti-cMET, IP with anti-cMET and blot with anti-V5; 500 ug protein, 2 ug antibody, 12 h at 4 °C; IgG as IP control
[4] = target: cMET (endogenous) (human (endogenous in HMLE and SUM159)) (UniProt P08581); assay: co-IP; SUM159 cell lysate, both proteins endogenous; IP with anti-cMET, blot with anti-EGFL9; IgG as IP control
[5] = target: T3, EGFL9-VN (p3xFlag-CMV-EGFL9-VN) (UniProt Q6UY11); assay: split reporter; BiFC with split Venus (VN 1-173, VC 155-239) in 293T cells, 1 ug of each plasmid, 48 h, live-cell confocal imaging
T3 sequence: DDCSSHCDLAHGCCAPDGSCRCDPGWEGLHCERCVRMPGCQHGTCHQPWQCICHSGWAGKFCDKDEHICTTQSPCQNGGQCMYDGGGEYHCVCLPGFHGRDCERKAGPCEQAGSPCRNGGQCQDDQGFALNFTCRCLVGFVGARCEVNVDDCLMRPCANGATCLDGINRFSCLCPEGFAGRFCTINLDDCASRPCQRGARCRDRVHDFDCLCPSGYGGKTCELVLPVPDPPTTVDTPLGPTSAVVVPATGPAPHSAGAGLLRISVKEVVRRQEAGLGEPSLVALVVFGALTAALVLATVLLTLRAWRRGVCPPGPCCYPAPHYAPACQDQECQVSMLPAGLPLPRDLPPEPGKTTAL

[6] = target: T4, EGFL9-V5 (pLent-6-EGFL9-V5, in 293T cells) (UniProt Q6UY11); assay: co-IP; 293T cells co-transfected with pLent-6-EGFL9-V5 and p3xFlag-CMV-COA3; IP with anti-V5, blot with anti-Flag
T4 sequence: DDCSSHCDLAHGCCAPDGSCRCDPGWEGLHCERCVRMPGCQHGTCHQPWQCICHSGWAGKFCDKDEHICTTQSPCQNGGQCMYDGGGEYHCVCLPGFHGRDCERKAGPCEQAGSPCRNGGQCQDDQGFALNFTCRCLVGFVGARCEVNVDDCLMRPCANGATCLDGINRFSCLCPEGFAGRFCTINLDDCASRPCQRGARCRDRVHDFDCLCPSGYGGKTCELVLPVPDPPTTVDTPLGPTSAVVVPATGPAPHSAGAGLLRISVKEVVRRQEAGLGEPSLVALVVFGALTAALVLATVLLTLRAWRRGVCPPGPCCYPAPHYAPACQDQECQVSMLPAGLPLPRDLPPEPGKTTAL

## cMET (endogenous) (from UniProt P08581 25-1390) (receptor)
[1]
  binding: binds

## wild-type cMET (co-transfected) (from UniProt P08581 25-1390) (receptor)
[2]
  binding: binds

B1: EGFL9-V5 (overexpressed in HMLE/EGFL9 cells) (protein, UniProt Q6UY11 27-383)
chain: DDCSSHCDLAHGCCAPDGSCRCDPGWEGLHCERCVRMPGCQHGTCHQPWQCICHSGWAGKFCDKDEHICTTQSPCQNGGQCMYDGGGEYHCVCLPGFHGRDCERKAGPCEQAGSPCRNGGQCQDDQGFALNFTCRCLVGFVGARCEVNVDDCLMRPCANGATCLDGINRFSCLCPEGFAGRFCTINLDDCASRPCQRGARCRDRVHDFDCLCPSGYGGKTCELVLPVPDPPTTVDTPLGPTSAVVVPATGPAPHSAGAGLLRISVKEVVRRQEAGLGEPSLVALVVFGALTAALVLATVLLTLRAWRRGVCPPGPCCYPAPHYAPACQDQECQVSMLPAGLPLPRDLPPEPGKTTAL
[3]
  binding: binds

B2: EGFL9 (endogenous in SUM159 cells) (protein, UniProt Q6UY11 27-383)
chain: DDCSSHCDLAHGCCAPDGSCRCDPGWEGLHCERCVRMPGCQHGTCHQPWQCICHSGWAGKFCDKDEHICTTQSPCQNGGQCMYDGGGEYHCVCLPGFHGRDCERKAGPCEQAGSPCRNGGQCQDDQGFALNFTCRCLVGFVGARCEVNVDDCLMRPCANGATCLDGINRFSCLCPEGFAGRFCTINLDDCASRPCQRGARCRDRVHDFDCLCPSGYGGKTCELVLPVPDPPTTVDTPLGPTSAVVVPATGPAPHSAGAGLLRISVKEVVRRQEAGLGEPSLVALVVFGALTAALVLATVLLTLRAWRRGVCPPGPCCYPAPHYAPACQDQECQVSMLPAGLPLPRDLPPEPGKTTAL
[4]
  binding: binds

B3: COA3-VC (p3xFlag-CMV-COA3-VC) (protein, UniProt Q9Y2R0 1-106)
chain: MASSGAGDPLDSKRGEAPFAQRIDPTREKLTPEQLHSMRQAELAQWQKVLPRRRTRNIVTGLGIGALVLAIYGYTFYSISQERFLDELEDEAKAARARALARASGS
[5]
  binding: binds

B4: 3xFlag-COA3 (p3xFlag-CMV-COA3) (protein, UniProt Q9Y2R0 1-106)
chain: MASSGAGDPLDSKRGEAPFAQRIDPTREKLTPEQLHSMRQAELAQWQKVLPRRRTRNIVTGLGIGALVLAIYGYTFYSISQERFLDELEDEAKAARARALARASGS
[6]
  binding: binds
